This is one part of the list.

Amino acid sequences for entries named in this document (tags omitted). A change or cut given only in a name is not applied to a line headed by its entry.
UniProt P10599: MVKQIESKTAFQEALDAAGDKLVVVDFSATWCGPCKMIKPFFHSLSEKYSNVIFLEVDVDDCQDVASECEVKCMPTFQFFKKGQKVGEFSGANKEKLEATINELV
UniProt Q9C0C9: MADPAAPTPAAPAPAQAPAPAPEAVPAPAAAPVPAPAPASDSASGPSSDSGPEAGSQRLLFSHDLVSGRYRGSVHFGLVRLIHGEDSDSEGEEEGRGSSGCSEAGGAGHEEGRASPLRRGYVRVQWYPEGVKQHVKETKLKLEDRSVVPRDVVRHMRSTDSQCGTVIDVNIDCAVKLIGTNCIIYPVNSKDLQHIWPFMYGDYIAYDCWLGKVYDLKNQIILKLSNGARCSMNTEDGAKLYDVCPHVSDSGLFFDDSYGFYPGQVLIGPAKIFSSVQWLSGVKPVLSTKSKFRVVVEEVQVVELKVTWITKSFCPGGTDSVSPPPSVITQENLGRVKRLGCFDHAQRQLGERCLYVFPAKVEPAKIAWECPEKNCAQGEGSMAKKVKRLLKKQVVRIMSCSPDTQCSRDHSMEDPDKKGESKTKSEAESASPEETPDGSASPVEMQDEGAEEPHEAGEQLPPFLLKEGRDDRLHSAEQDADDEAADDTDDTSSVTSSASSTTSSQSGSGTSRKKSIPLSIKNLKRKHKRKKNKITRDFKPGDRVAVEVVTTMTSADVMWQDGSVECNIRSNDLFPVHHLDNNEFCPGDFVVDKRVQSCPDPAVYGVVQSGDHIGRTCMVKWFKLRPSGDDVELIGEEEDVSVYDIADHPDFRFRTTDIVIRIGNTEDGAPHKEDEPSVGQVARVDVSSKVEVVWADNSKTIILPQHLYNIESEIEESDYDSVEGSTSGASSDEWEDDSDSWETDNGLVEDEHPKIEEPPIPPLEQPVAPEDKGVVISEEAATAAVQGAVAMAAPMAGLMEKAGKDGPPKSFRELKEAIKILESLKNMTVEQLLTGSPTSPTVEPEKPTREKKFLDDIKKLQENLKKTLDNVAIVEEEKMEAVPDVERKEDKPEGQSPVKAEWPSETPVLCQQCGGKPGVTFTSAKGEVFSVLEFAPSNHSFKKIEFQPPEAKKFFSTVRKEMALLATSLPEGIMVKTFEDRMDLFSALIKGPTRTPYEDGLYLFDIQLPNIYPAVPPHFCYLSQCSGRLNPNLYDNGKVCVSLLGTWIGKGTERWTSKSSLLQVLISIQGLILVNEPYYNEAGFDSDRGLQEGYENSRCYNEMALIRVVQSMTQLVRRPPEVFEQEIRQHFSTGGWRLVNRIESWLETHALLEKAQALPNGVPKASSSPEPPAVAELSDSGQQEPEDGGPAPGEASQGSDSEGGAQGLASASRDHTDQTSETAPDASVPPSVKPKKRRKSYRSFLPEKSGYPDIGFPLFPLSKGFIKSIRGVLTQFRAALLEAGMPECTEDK
UniProt Q9NZ09: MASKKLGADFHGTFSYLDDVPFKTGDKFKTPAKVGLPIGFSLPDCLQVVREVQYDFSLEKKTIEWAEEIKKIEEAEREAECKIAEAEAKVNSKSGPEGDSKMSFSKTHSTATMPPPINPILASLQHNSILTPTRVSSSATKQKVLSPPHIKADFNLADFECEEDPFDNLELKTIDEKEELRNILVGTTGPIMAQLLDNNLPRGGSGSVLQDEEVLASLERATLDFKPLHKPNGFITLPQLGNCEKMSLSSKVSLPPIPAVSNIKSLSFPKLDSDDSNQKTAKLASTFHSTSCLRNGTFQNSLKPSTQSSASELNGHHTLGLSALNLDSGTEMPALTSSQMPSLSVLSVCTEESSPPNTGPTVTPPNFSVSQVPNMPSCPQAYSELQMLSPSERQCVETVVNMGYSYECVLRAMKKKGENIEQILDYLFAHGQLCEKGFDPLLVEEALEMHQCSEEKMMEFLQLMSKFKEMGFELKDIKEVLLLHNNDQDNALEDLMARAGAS
UniProt Q8IWV8: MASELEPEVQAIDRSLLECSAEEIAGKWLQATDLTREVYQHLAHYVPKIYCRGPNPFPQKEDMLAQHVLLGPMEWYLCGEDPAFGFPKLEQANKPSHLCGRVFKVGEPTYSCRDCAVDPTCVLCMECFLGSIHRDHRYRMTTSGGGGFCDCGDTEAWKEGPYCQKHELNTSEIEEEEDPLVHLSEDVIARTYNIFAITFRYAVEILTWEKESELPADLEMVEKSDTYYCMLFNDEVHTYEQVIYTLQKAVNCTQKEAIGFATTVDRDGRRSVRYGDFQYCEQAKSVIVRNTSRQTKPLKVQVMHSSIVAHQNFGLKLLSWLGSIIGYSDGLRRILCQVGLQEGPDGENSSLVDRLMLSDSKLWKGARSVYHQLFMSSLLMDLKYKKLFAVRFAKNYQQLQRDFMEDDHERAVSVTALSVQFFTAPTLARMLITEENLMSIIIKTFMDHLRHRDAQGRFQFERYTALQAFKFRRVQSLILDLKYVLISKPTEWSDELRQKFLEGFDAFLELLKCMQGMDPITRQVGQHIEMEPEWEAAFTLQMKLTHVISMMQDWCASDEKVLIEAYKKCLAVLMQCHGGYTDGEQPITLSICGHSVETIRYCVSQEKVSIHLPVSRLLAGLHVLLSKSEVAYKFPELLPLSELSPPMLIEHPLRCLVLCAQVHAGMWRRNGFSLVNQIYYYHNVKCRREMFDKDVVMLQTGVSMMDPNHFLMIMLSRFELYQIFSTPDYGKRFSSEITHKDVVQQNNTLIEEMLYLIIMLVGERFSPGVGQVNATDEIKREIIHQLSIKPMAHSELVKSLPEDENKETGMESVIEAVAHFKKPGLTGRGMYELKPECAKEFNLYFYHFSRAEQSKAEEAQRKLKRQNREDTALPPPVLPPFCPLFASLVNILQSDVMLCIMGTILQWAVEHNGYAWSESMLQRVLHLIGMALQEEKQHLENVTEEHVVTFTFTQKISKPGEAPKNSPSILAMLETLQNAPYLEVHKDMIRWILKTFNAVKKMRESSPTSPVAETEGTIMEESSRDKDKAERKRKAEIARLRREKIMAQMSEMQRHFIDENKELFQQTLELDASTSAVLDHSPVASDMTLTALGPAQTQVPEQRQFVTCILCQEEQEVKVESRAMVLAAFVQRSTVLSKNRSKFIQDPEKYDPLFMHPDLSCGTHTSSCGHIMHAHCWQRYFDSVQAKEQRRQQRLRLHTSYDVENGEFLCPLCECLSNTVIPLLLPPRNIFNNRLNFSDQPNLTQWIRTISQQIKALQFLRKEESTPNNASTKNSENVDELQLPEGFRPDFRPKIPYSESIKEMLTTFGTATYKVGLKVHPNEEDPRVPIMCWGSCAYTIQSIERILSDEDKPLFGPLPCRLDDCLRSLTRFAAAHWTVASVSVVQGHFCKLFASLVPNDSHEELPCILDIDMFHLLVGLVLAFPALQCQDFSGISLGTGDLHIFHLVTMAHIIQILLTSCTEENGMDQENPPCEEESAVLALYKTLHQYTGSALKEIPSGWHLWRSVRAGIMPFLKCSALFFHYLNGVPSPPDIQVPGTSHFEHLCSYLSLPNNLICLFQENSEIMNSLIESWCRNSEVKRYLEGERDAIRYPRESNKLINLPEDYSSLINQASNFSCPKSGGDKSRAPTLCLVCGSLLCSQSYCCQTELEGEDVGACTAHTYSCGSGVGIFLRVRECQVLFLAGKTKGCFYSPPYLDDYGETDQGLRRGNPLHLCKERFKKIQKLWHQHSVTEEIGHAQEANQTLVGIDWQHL
UniProt Q9BZF9: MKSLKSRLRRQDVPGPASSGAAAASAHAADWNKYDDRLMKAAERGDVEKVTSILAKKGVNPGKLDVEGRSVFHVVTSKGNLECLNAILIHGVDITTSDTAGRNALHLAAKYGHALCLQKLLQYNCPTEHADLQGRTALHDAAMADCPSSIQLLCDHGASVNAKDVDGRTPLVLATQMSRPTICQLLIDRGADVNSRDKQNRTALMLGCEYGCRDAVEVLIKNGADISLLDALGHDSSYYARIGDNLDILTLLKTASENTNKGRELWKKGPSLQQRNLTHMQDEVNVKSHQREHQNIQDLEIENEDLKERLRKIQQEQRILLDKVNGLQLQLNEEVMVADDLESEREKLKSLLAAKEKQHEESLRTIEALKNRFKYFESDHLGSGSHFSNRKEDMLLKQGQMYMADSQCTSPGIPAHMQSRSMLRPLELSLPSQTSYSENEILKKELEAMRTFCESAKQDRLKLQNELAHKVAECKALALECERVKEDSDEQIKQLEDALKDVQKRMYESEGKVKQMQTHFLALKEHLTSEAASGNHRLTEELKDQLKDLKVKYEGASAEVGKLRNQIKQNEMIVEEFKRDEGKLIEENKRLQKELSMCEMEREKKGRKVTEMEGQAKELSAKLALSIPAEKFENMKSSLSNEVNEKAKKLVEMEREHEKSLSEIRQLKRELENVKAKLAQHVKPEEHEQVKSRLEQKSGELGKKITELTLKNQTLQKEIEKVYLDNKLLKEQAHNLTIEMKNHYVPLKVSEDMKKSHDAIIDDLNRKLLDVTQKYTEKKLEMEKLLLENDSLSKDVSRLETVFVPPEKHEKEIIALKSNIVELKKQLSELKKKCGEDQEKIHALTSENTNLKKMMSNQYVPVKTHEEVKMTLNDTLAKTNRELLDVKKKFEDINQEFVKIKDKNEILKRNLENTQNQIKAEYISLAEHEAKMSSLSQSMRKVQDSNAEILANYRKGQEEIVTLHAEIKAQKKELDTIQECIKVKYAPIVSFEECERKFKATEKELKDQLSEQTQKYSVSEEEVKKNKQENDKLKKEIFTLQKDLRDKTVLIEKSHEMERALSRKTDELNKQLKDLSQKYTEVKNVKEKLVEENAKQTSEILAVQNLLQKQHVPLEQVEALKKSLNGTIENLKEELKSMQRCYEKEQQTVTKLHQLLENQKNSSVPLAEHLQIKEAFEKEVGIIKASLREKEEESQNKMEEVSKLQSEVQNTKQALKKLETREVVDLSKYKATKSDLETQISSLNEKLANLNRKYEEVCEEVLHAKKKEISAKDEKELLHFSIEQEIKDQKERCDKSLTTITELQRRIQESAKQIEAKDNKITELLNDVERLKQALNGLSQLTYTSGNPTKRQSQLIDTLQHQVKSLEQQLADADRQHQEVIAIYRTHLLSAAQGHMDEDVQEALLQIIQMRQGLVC
UniProt Q8WVY7: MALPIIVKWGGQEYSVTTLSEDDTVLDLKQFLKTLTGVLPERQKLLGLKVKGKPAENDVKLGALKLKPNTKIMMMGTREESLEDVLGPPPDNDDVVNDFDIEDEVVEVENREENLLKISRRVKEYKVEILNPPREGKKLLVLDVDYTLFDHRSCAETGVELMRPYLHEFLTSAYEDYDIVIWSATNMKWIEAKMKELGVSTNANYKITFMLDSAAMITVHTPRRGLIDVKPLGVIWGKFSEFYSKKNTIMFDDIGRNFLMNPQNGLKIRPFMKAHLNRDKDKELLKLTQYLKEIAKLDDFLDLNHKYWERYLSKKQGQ
UniProt Q15386: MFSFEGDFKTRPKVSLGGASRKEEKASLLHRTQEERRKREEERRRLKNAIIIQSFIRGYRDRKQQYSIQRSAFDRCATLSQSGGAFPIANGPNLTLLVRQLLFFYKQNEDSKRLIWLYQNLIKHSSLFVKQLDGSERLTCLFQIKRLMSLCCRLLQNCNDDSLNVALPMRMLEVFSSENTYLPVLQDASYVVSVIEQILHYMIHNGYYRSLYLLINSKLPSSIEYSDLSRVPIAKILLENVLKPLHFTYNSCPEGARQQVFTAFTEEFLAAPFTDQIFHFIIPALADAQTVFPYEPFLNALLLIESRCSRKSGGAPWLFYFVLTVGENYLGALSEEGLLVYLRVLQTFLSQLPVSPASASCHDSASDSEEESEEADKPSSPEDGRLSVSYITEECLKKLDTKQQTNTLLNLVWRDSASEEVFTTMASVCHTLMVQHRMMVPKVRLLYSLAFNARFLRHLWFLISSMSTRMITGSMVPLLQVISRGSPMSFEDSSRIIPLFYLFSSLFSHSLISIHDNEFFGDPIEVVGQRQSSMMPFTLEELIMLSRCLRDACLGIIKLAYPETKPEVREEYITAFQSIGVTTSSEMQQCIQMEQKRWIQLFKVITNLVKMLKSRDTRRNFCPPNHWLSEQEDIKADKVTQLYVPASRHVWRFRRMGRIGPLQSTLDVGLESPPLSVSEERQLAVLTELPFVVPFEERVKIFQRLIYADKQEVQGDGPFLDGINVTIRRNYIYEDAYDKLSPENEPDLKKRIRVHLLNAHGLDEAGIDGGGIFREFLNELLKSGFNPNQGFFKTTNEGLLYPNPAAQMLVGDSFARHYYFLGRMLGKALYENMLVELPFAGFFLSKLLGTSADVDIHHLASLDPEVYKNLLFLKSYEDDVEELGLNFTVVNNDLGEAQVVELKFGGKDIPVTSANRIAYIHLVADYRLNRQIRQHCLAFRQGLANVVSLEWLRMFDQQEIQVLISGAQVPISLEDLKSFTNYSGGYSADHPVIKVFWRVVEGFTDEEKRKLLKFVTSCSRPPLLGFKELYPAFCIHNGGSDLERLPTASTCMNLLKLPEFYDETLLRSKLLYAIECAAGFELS

Compound in the experiment: Cc1cc(ccc1-c1ccccc1)C(=O)N1CCCN(CC1)C(=O)CCl [compound 10]
In words: probe-labelled cysteine peptide fold change vs DMSO (competition) (log2 fold change); higher = less target engagement (more negative = stronger competition). The note with it: THP-1, incubation time: 4 h.
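Also: competitive profiling in live THP-1 cells: cysteine peptides tagged with an iodoacetamide desthiobiotin (IA-DTB) probe, intensity after compound treatment relative to DMSO-treated cells.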

Turning to “UBA7_P41226_145_HGVCFLAADTR (UniProt P41226)”, the “probe-labelled cysteine peptide fold change” value is 0.272 (10 µM) and -0.00263 (50 µM).
In the case of “TXN_P10599_35_LVVVDFSATWCGPCK (UniProt P10599)”, the “probe-labelled cysteine peptide fold change” value reads like this: (10 µM) -0.765; (50 µM) -0.357.
As to “UBE2O_Q9C0C9_598_VQSCPDPAVYGVVQSGDHIGR (UniProt Q9C0C9)”, the “probe-labelled cysteine peptide fold change” value is, setting by setting: (10 µM) -0.267; (50 µM) -0.349.
As to “UBL4A_P11441_13_ECSLQVPEDELVSTLK (UniProt P11441)”, the “probe-labelled cysteine peptide fold change” value (10 µM) came to 0.0566 and the “probe-labelled cysteine peptide fold change” value (50 µM) was 0.12.
Turning to “UBR4_Q5T4S7_1724_EDGSCLALVK (UniProt Q5T4S7)”, the “probe-labelled cysteine peptide fold change” value is 0.0487 (10 µM) and -0.127 (50 µM).
Regarding “UBE2O_Q9C0C9_585_SNDLFPVHHLDNNEFCPGDFVVDK (UniProt Q9C0C9)”, the “probe-labelled cysteine peptide fold change” value (10 µM) is -0.118 and the “probe-labelled cysteine peptide fold change” value (50 µM) worked out at 0.0764.
Regarding “UBAP1_Q9NZ09_434_GENIEQILDYLFAHGQLCEK (UniProt Q9NZ09)”, the “probe-labelled cysteine peptide fold change” value came out at 0.223 (10 µM) and 0.368 (50 µM).
The like results for “TXNRD2_Q9NNW7_54_DYDLLVVGGGSGGLACAK (UniProt Q9NNW7)” were, in that order, -0.0642 and -0.125.
Consider “UBR4_Q5T4S7_4890_KQQGYSTVSHFNIVHYDCHLAAVR (UniProt Q5T4S7)”, for which the “probe-labelled cysteine peptide fold change” value was 0.0563 (10 µM) and -0.151 (50 µM).
On to “UBE2I_P63279_75_CKFEPPLFHPNVYPSGTVCLSILEEDK (UniProt P63279)”, for which the “probe-labelled cysteine peptide fold change” value (10 µM) was 0.165 and the “probe-labelled cysteine peptide fold change” value (50 µM) amounted to 0.175.
The like results for “UBR4_Q5T4S7_4890_QQGYSTVSHFNIVHYDCHLAAVR (UniProt Q5T4S7)” were, in that order, -0.0432 and 0.111.
Regarding “UBR4_Q5T4S7_2619_QLEGDCCSFITQLVNHFWK (UniProt Q5T4S7)”, the “probe-labelled cysteine peptide fold change” value reads like this: (10 µM) -0.0425; (50 µM) -0.45.
Take “UBR5_O95071_1291_QTVEHCQYRPPR (UniProt O95071)”: the “probe-labelled cysteine peptide fold change” value runs as follows: (10 µM) 0.0471; (50 µM) 0.0177.
Consider “UBR2_Q8IWV8_99_LEQANKPSHLCGR (UniProt Q8IWV8)”, for which the “probe-labelled cysteine peptide fold change” value runs as follows: (10 µM) -0.0959; (50 µM) -0.175.
Turning to “UBP1_Q9NZI7_409_EDLVQICGAADGIR (UniProt Q9NZI7)”, the “probe-labelled cysteine peptide fold change” value runs as follows: (10 µM) 0.109; (50 µM) -0.0555.
In the case of “UBR1_Q8IWV7_574_CSTSFISSSK (UniProt Q8IWV7)”, the “probe-labelled cysteine peptide fold change” value by setting is: (10 µM) 0.00992; (50 µM) 0.14.
For the target “UACA_Q9BZF9_83_GNLECLNAILIHGVDITTSDTAGR (UniProt Q9BZF9)”, the “probe-labelled cysteine peptide fold change” value runs as follows: (10 µM) -0.0861; (50 µM) -0.293.
“UBA7_P41226_289_SLDTALLQPHVVAQSSQEVHHAHCLHQAFCALHK (UniProt P41226)”: the “probe-labelled cysteine peptide fold change” value was -0.332 (10 µM) and -0.156 (50 µM).
Take “UBLCP1_Q8WVY7_154_SCAETGVELMR (UniProt Q8WVY7)”: the “probe-labelled cysteine peptide fold change” value is, setting by setting: (10 µM) 0.163; (50 µM) 0.308.
For the target “UBAP1_Q9NZ09_161_ADFNLADFECEEDPFDNLELK (UniProt Q9NZ09)”, the “probe-labelled cysteine peptide fold change” value is -0.206 (10 µM) and -0.0825 (50 µM).
As to “TXNL1_O43396_135_AGCECLNESDEHGFDNCLRK (UniProt O43396)”, the “probe-labelled cysteine peptide fold change” value runs as follows: (10 µM) -0.225; (50 µM) -0.239.
On to “UBA1_P22314_278_VLGPYTFSICDTSNFSDYIR (UniProt P22314)”, for which the “probe-labelled cysteine peptide fold change” value (10 µM) came out at 0.119 and the “probe-labelled cysteine peptide fold change” value (50 µM) is 0.115.
As for “TYMS_P04818_180_IIMCAWNPR (UniProt P04818)”, the “probe-labelled cysteine peptide fold change” value stood at 0.0854 (10 µM) and 0.00629 (50 µM).
Turning to “UBR4_Q5T4S7_4146_QAACTIVEALATIPSRK (UniProt Q5T4S7)”, the “probe-labelled cysteine peptide fold change” value was -0.0222 (10 µM) and 0.0202 (50 µM).
As to “UBR4_Q5T4S7_779_ASAQGDPDVPECLK (UniProt Q5T4S7)”, the “probe-labelled cysteine peptide fold change” value worked out at 0.161 (10 µM) and 0.427 (50 µM).
Turning to “UBE2F_Q969M7_50+52_EVAELEANLPCTCK (UniProt Q969M7)”, the “probe-labelled cysteine peptide fold change” value runs as follows: (10 µM) -0.126; (50 µM) -0.225.
For the target “UBA3_Q8TBC4_249_LPEHCIEYVR (UniProt Q8TBC4)”, the “probe-labelled cysteine peptide fold change” value by setting is: (10 µM) -0.0154; (50 µM) -0.159.
Regarding “UBR7_Q8N806_182_HLGAIPPESGDFQEMVCQACMK (UniProt Q8N806)”, the “probe-labelled cysteine peptide fold change” value was 0.0137 (10 µM) and -0.384 (50 µM).
As to “UBE2V1_Q13404_71_IECGPK (UniProt Q13404)”, the “probe-labelled cysteine peptide fold change” value by setting is: (10 µM) -0.048; (50 µM) -0.193.
For “UBR2_Q8IWV8_336_ILCQVGLQEGPDGENSSLVDR (UniProt Q8IWV8)”, in that order: 0.0457 and -0.118.
The like results for “UBE2E1_P51965_131_IYHCNINSQGVICLDILK (UniProt P51965)” were, in that order, -0.196 and 0.423.
As to “UBA1_P22314_748_RCPHPLTFDVNNPLHLDYVMAAANLFAQTYGLTGSQDR (UniProt P22314)”, the “probe-labelled cysteine peptide fold change” value reads like this: (10 µM) -0.0255; (50 µM) 0.114.
As to “UBN1_Q9NPG3_711_VGGVLCTEEK (UniProt Q9NPG3)”, the “probe-labelled cysteine peptide fold change” value is, setting by setting: (10 µM) -0.0763; (50 µM) 0.0664.
For “UBE3C_Q15386_1018_FVTSCSRPPLLGFK (UniProt Q15386)”, the “probe-labelled cysteine peptide fold change” value is -0.242 (10 µM) and 0.0815 (50 µM).

The values are drawn from the supplement of paper PMC12067093, “Discovery and optimisation of a covalent ligand for TRIM25 and its application to targeted protein ubiquitination” (Chemical Science, 2025).
